Laboratory results taken from the supplement of paper PMC12889115.
This is one part of the list. These are raw signals, not scaled to a control.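 In the initial screen, polymyxin B was used at a concentration that permeabilizes Salmonella's outer membrane but not its inner membrane. Maximum growth was set by DMSO wells with or without polymyxin B. Since plates varied, data were ranked per plate, and compounds giving the lowest OD600 advanced as hits.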

Test system: Salmonella enterica serovar Typhimurium SL1344
Test: bacterial growth OD600 after 18 h with compound and polymyxin B; higher = more bacterial growth (less inhibition)
Conditions: 50 µM, Mueller-Hinton broth

| SMILES | bacterial growth OD600 (polymyxin B 1 µg/mL) | bacterial growth OD600 (polymyxin B 0.75 µg/mL) |
| --- | --- | --- |
| Cc1ccc(C)c(-n2cc(CN3CCN(C(=O)c4nc[nH]n4)CC3)c(-c3ccccc3)n2)c1 | 0.586 |  |
| CCc1ncc(CN2CCC(C3CCN(c4ncccn4)CC3)C2)cn1 (stereo not given) |  | 0.788 |
| O[C@@H]1CN(CCCn2cccn2)CC[C@H]1N1CCN(c2ccccn2)CC1 | 1.3 |  |
| Cc1cnc(C)c(-c2ccc3c(c2)CC(CNC(=O)c2ccc(OC(C)C)cc2)O3)n1 (stereo not given) |  | 0.438 |
| CCC(C)n1cc(C(=O)NC2CCN(Cc3ccccc3)CC2)c(=O)c(C(=O)N2CCCCCC2)c1 (stereo not given) |  | 0.877 |
| CCc1ccc(CN(C)c2nncc(-c3cccc(F)c3)n2)nc1 | 0.167 |  |
| Cc1ccc(-c2nc(CN3CCCCC3c3cccc(F)c3)c(C)o2)o1 (stereo not given) | 0.863 |  |
| COc1cc(CN(C(=O)C2CCC2)[C@H]2CCCCNC2=O)ccc1OCCc1scnc1C |  | 0.724 |
| Cc1ccc(C(=O)Nc2ccc(N3CCC(NCc4cnn(Cc5ccccc5)c4)CC3)cc2)c(C)c1 |  | 0.834 |
| O=C1CN(C(=O)C2CCN(c3nc(-c4ccccc4)nc4c3CCC4)CC2)CCN1 |  | 0.897 |
| CCOc1cccc(CN2CCCC(c3[nH]ncc3CC(C)C)C2)c1O (stereo not given) |  | 0.943 |
| CCOC(=O)C1(CC2CC2)CCN(S(=O)(=O)c2ccc(C)cc2)CC1 | 0.453 |  |
| COc1ccccc1C(=O)N(CCc1ccccc1)CC1CCCN(C)C1 (stereo not given) | 0.897 |  |
| Cc1cnccc1CN(C)C(=O)CC(c1ccccc1)c1ccccc1Cl (stereo not given) | 0.001 |  |
| CN(C)c1ccc(C(=O)NCCC2CCCCN2C)cn1 (stereo not given) | 0.952 |  |
| O=C(c1ccc(NCc2ccccc2)nc1)N1CCCN(c2ncccn2)CC1 |  | 0.772 |
| O=C1CCC(C(=O)N2CCC(Cc3ccccc3)CC2)CN1CCN1CCOCC1 (stereo not given) | 1.08 |  |
| CC(C)c1nccn1CCCNC(=O)c1ccc(N2CC[C@H](O)C2)nc1 | 0.953 |  |
| CCOC(=O)C1(CCOC)CCCN(Cc2cccn2-c2ccc(Cl)cn2)C1 (stereo not given) |  | 0.77 |
| O=C(NCCc1ccncc1)c1coc(COc2ccccc2F)n1 | 0.939 |  |
| COc1ccc(-c2cnnc(N3CCCC(OCc4ccccn4)C3)n2)cc1OC (stereo not given) |  | 0.989 |
| COc1ccc(C(=O)CCC(=O)N2CCC(n3nccc3NC(=O)CC(C)C)CC2)cc1 | 1.32 |  |
| CCOC(=O)CC1CCCCN1C(=O)c1cn(Cc2cccc3ccccc23)nn1 (stereo not given) | 0.49 |  |
| O=C(NCCC1=CCCCC1)C1CC12CCN(C(=O)c1ccc(N3CCOCC3)cc1)CC2 (stereo not given) |  | 0.843 |
| CC(=O)N1CCN(c2ncccc2CNCc2ccc(C(C)C)cc2)CC1 |  | 0.779 |
| O=C(NC(C1CC1)C1CC1)C1CCCN(C2CCN(C(=O)C3CC3)CC2)C1 (stereo not given) |  | 0.841 |
| COc1cccc(CN2CCN(CC3CCCCC3)C(CCO)C2)c1OC (stereo not given) | 0.907 |  |
| CC1(CNc2nc3nonc3nc2N2CCSCC2)COC1 |  | 0.774 |
| COC(=O)C1CCCCN1C(=O)c1csc2nc(-c3ccccc3C)cn12 (stereo not given) | 0.811 |  |
| CN(Cc1ccsc1)C(=O)CC1(c2ccccc2)CC(=O)N(CCCOc2cccnc2)C1=O (stereo not given) |  | 0.682 |

Reformatted with bars between the fields: entries from further up.
SMILES | bacterial growth OD600 (polymyxin B 1 µg/mL) | bacterial growth OD600 (polymyxin B 0.75 µg/mL)
CCOc1cccc(CN2CCCC(c3[nH]ncc3CC(C)C)C2)c1O (stereo not given) |  | 0.943
CCOC(=O)C1(CC2CC2)CCN(S(=O)(=O)c2ccc(C)cc2)CC1 | 0.453 | 
